# Experimental data taken from publication PMC6887120.
# The chains behind the UniProt entries cited, without tags or fusion partners. Where a name states a change or a piece, a line headed by the entry shows the natural chain unless it says otherwise.
# UniProt Q8NKE9: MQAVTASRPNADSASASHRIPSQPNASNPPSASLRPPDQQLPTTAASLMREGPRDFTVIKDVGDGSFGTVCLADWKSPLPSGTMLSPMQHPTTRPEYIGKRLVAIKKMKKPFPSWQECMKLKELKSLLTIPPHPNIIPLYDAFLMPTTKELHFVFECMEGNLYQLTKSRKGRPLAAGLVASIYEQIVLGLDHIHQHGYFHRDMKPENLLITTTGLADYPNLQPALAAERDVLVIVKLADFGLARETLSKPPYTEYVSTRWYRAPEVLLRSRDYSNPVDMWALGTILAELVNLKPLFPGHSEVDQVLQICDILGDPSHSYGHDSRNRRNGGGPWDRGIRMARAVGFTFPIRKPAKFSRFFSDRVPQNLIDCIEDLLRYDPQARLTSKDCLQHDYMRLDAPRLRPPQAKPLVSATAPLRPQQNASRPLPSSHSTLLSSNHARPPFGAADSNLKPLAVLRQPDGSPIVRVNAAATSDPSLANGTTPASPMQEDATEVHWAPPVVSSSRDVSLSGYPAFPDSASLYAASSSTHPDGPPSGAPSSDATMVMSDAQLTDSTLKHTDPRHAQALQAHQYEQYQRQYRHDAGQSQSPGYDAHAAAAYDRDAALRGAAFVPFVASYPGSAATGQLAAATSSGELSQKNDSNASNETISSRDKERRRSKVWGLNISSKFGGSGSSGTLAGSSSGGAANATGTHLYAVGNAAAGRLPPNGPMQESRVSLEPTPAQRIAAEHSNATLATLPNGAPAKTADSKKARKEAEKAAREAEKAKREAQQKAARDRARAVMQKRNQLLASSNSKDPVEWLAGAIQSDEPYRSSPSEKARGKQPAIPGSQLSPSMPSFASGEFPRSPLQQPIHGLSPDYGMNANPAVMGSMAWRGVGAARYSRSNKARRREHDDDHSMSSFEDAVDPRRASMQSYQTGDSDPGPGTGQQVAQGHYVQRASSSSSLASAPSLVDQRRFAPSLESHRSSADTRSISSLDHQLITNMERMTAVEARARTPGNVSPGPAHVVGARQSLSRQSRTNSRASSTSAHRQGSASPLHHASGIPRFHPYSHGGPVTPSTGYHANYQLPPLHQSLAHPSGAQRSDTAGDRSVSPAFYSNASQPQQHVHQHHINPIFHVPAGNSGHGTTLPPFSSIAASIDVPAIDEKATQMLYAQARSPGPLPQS
# UniProt A0A0D1DY50: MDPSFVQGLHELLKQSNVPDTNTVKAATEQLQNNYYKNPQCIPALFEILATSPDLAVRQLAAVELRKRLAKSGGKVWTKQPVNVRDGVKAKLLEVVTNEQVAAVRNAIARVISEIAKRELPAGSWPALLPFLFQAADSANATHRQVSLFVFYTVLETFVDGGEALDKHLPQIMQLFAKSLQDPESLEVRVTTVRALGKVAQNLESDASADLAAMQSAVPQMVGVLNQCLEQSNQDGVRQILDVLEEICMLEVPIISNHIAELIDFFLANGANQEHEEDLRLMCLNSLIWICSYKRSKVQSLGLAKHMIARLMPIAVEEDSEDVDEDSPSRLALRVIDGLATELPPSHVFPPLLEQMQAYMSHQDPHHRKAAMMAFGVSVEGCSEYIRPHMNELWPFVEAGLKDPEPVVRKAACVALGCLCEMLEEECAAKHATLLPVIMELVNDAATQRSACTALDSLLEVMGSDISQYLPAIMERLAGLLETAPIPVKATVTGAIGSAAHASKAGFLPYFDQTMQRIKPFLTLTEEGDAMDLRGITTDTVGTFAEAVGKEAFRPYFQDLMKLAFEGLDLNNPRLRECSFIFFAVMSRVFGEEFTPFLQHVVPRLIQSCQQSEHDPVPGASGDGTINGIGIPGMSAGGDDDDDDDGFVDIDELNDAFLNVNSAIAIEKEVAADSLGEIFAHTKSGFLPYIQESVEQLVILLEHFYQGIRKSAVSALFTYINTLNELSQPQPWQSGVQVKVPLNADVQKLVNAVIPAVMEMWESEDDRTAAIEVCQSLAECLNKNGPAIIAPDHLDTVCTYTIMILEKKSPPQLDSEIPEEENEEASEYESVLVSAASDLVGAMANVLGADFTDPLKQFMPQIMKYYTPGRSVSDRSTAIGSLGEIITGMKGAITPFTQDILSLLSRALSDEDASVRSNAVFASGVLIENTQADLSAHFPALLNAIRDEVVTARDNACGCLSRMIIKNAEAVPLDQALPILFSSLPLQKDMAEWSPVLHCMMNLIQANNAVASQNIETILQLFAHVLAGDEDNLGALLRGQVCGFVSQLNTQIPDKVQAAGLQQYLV
# No constants are given. Whether binding was seen depends on the method and setting. In cells and extracts the contact can be indirect. Here binding means that the protein was enriched with, or labelled near, the bait; the list need not be complete.
# Molecular target: Pcl12-GFP (Ustilago maydis) (UniProt A4ZY37)
# Experiment: affinity purification with mass spectrometry; GFP-trap beads with crude extracts (HB buffer) of cells expressing the fuz7DD allele and Pcl12-GFP; SDS-PAGE, trypsin digest, LC-MS
row,Substance,binding
1,Crk1 (Cdk-Related Kinase 1) (from UniProt Q8NKE9) (enzyme),binds
2,Kap123 (UMAG_15014) (from UniProt A0A0D1DY50),binds
